Results are given in words; binding and its absence hold for the method and conditions named. Binding seen in cells or lysates may run through a third protein. Binding calls can cover weak binding; strength is not graded here. One block for each binder: values may come before it.
Molecular target: 2xFLAG-tagged FRH (FRQ-Interacting RNA-helicase) (Neurospora crassa)
Assay: co-IP

- binding: binds
B1: FRQ (Frequency), hypophosphorylated, native (protein, UniProt P19970 1-989)
chain: MADSGDKSQGMRPPPFDSRGHPLPRRASPDKSITLENHRLARDTSSRVTSSSALGVTESQPQLKSSPTRRNSSGESEPTNWFNQSNRNPAAAFHDESHIMEVDPPFYQKETDSSNEESRYPPGRNPVHPPGGVQLPGFRPVAAHSSAADDYRSVIDDLTVENKRLKEELKRYKQFGSDVMRKEKLFEIKVHGLPRRKKRELEATLRDFAASLGDSSESTSQRRKTGRHGTAVHSSGVSLSKHDSSSSSRSRPVDSAYNSMSTGRSSHAPHSSGPSLGRPSLTRAKSVGTQKVENYLRDTPDGLLPHHIVMTDKEKKKLVVRRLEQLFTGKISGRNMQRNQSMPSMDAPLAPEGTNMAPPRPPPEGLREACIQLQDGDNPRKNRSSKDNGSASNSGGDQTELGGTGTGSGDGSGSGGRTGNNTSPPGAIAPDQRPTRPRDLDPDRVQIPSENMDYIRHLGLVSPEFLQGSRTSYQDVAPDAEGWVYLNLLCNLAQLHMVNVTPSFIRQAVSEKSTKFQLSADGRKIRWRGGTDGTKFSSDSSEDKSQQSPMTEDTEDGSDKNGRRKKRKTQQASSEIGRFGPSRSPSDTFHYKPMFVHRNSSSIETSLEESMSQGSEDAVDESNMGNSKWDFSGSGTTQQRRKRRYDGAIVYYTGAPFCTDLSGDPGDMSPTAQMTAGREVEGSGSGDEVEHVLQRTLSGSSLPIRPLSDDRARVAEVLDFDPGNPPELVADDGSSPNDEDFVFPWCEDPAKVRIQPIAKEVMEPSGLGGVLPDDHFVMLVTTRRVVRPILQRQLSRSTTSEDTAEFIAERLAAIRTSSPLPPRSHRLTVAPLQVEYVSGQFRRLNPAPLPPPAIFYPPFSTDSSWDDGDDLASDDEEVEEVEEDSYSEGQISRRANPHFSDNNTYMRKDDLAFDTETDVRMDSDDNRLSDSGHNMRAMMPRAEAVDGDDSPLAAVTGKEVDMLHTGSSVATAGGAESGYSSSMEDVSSS
modifications: hypophosphorylated (sites not given)

- binding: no binding
B2: FRQ (Frequency), hyperphosphorylated in vitro by CK1a (protein, UniProt P19970 1-989)
chain: B1 chain
modifications: hyperphosphorylated by recombinant CK1a and ATP (sites not given)
